Assay results taken from article PMC10993572.
No constants are given. Whether binding was seen depends on the method and setting. In cells and extracts the contact can be indirect. Some results given as binding are weak or reduced against the parent protein; the word gives no strength.

By UniProt entry, the sequences of proteins in these tests, tags left out. Residues count along the entry.
UniProt P05121, residues 24-402: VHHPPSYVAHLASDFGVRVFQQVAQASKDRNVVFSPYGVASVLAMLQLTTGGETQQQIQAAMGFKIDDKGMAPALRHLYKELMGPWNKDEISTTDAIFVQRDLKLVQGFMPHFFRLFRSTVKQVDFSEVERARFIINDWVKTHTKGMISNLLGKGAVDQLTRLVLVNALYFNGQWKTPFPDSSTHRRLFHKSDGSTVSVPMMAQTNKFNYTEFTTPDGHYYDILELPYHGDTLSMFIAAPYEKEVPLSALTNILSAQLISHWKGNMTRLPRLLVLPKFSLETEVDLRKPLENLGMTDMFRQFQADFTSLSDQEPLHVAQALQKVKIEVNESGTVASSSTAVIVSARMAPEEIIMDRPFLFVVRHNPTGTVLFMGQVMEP
UniProt Q04206: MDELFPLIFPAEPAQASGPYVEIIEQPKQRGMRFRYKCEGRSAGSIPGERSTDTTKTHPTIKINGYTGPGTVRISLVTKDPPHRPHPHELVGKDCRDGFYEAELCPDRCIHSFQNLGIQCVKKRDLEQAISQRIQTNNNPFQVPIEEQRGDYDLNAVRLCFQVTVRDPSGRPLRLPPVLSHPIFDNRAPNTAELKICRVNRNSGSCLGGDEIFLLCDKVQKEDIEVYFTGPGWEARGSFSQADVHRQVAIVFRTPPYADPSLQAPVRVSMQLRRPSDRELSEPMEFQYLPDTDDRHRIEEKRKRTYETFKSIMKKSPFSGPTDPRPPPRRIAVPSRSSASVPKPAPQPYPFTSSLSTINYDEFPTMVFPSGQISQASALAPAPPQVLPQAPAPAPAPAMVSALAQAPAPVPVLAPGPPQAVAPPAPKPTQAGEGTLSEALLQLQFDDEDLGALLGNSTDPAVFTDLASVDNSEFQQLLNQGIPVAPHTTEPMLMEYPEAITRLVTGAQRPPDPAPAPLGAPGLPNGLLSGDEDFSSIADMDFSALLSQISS

What was measured:
[1] = target: SERPINE1 (serpin family E member 1), endogenous in RKO cells (human (endogenous in RKO)) (UniProt P05121); assay: co-IP; endogenous proteins in RKO cell lysate; primary antibody overnight at 4 °C, Protein A/G magnetic beads, washed with PBST; western blot
[2] = target: GFP-SERPINE1 (serpin family E member 1 tagged with GFP) (UniProt P05121); assay: co-IP; exogenous proteins in transfected 293T cell lysate; primary antibody overnight at 4 °C, Protein A/G magnetic beads, washed with PBST; western blot

| binding [1] | binding [2] | Substance |
| --- | --- | --- |
| binds |  | NF-κB p65, endogenous in RKO cells (from UniProt Q04206 1-551) |
|  | binds | p65-FLAG (from UniProt Q04206 1-551) |
